# Measured values reported in publication PMC8745574.
# Results are given in words; binding and its absence hold for the method and conditions named.
# T1: POT1a (Arabidopsis thaliana) (UniProt Q56Y52)
# T1 sequence: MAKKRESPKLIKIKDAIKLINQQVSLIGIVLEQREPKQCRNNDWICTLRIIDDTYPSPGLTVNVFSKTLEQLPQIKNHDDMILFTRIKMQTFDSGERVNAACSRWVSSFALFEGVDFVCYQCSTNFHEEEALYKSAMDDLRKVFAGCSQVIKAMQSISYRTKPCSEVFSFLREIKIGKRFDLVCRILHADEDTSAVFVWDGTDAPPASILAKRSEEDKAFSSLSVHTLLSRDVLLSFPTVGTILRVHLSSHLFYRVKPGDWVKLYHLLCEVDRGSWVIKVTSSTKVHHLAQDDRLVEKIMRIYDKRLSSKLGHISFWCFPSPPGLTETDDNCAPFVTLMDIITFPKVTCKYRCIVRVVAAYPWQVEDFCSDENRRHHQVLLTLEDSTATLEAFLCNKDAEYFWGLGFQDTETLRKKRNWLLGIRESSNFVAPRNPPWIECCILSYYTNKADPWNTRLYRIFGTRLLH
# Target: T1, POT1a (Arabidopsis thaliana)
# Assay: two-hybrid; Matchmaker GAL4 system, pGADT7-DEST/pGBKT7-DEST, S. cerevisiae PJ69-4α, 30 °C; growth on -LWH plates (with increasing 3-aminotriazol) and -LWHAde plates
row,binding,Binder
1,no binding,"NRP1 (protein, UniProt Q9CA59 1-256) MVADKSKKSKIEEKGEEENLEQIDAELVLSIEKLQEIQDDLEKINEKASDEVLEVEQKYNVIRKPVYDKRNEVIQSIPGFWMTAFLSHPALGDLLTEEDQKIFKYLNSLEVEDAKDVKSGYSITFHFTSNPFFEDAKLTKTFTFLEEGTTKITATPIKWKEGKGLPNGVNHDDKKGNKRALPEESFFTWFTDAQHKEDAGDEIHDEVADIIKEDLWSNPLTYFNNDADEEDFDGDDDGDEEGEEDDDDEEEEDGEE"
2,no binding,"NRP2 (protein, UniProt Q8LC68 1-255) MVTDKSKKAKTEEENVEQIDAELVLSIEKLQEIQDDLEKINEKASDEVLEVEQKYNVIRKPVYDKRNEIIKTIPDFWLTAFLSHPALGELLTEEDQKIFKYLSSLDVEDAKDVKSGYSITFSFNPNPFFEDGKLTKTFTFLEEGTTKITATPIKWKEGKGLANGVNHEKNGNKRALPEESFFTWFSDAQHKEDVEDEMQDEVADIIKEDLWPNPLTYFNNDADEEDFDGDDDGDEEEKEGDSDEDDDEEDEVGEE"
3,no binding,"NAT10 (protein, UniProt Q9XIK4 1-1028) MRKKVDERIRTLIENGVKLRHRSMFVIIGDKARDQIVNLHHILSKSVVKSNPSVLWCYKNRLDISSHNKKRAKQLKKMKERGQLDPEKLDAFSLFLDVVDVTHCLYKDSERILGNTFGICILQDFEALTPNLLARTIETVEGGGLVVLLLQSLASLTSLCTMVMDVHDRFRTESHSEASGRFNERFLLSLASCKACVVMDDELNLLPLSSHIKSITKVPTKEDSEALSEAERDLKSLKDALNDDFPVGPLINKCCTLDQGKAVVTFFDAILDKTLRSIVALIASRGRGKSAALGLAVAGAVAAGYSNIYVTAPSPDNLKTVFEFVCKGFDALEYKEHLEYDVVRSVNPEFNKAIVRINIFKQHRQTIQYIQPHEHEKLSQVELLVIDEAAAIPLPVVKSLLGPYLVFLSSTVSGYEGTGRSLSLKLLQQLEEQSRAPVTGVEGSLSGCLFKKIELSESIRYASGDPIESWLNGLLCLDVANCLPNPACHPLPSQCDLYYVNRDTLFSYHKDSELFLQRMMALCVSSHYKNSPNDLQLLSDAPAHHLFVLLGPVDESKNQLPDILCVIQVCLEGQISRKSAEKSLREGHSPHGDQIPWKFCEQFRDVVFPKLSGARIVRIAVHPNAMKMGYGSAAVELLTRYFEGQLASISEGDDELEVEPSPVRVTEAAAKVSLLEEQIKPRANLPPLLVPLRDRRPERLHYIGVSFGLTLDLFRFWRKHKFAPFYISQIPSAVTGEHTCMLLKPLTLSNDEFEVDESDELGFFAPFYKDFRIRFSKLLSDKFKKMDYKLAMSVLNPKINFPEVDLTGNSPDGFLKKLDGVLSPYDMERFRAYTANLVDFNLVYDICKTLAHHYFQEKLPVSLSYVQASVLLCLGLQESDFSSIERQMQLERGQIYSLLLKVGKKLYKYLNGIATKELESTLPRLKDRVLEPHKVSVDEDLREGAKEVEEQMRARIEELLDPELLDQFAIGDKEAEALQKSKISSSGLISIESTKTDNKKEKPSGFDKSAKKRGNDKHSSTSNKKRRA"
